Results taken from PubChem BioAssay AID1347075 (National Center for Advancing Translational Sciences (NCATS), 2019).
The whole screen tested about 400,000 compounds, of which about 5,500 (1.4%) were called active. The shares of active, inactive and inconclusive entries below differ from those in the screen. Calls come from the whole dose curve; as a rule, active = well fitted cell-killing curve with a large enough effect; inconclusive = small, poorly fitted or top-dose-only effect, or effect the other way; inactive = flat fitted curve, though single readings scatter. Potencies beside an inconclusive call are fits to weak or partial responses and may not hold up.

Test: qHTS assay for MDR1-selective chemotherapeutics: Primary screen using the parental adenocarcinoma cell KB-3-1; note: nearly all actives have a fitted effect of over 60% in size
Conditions: KB-3-1 viability, CellTiter-Glo ATP luminescence, 72 h; activity change, negative = cytotoxic: at 46.1 µM (top of the series)
Procedure, shortened: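 72 h, 37 °C compound treatment of KB-3-1 parental cells; CellTiter-Glo added, 10 min, luminescence read. Data corrected against DMSO-only plates and normalized before curve fitting.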
% is set by controls: 0 for no effect and ±100 for the full control effect; potency is the fitted concentration of half-maximal effect.

Row | SMILES | Potency | activity change, negative = cytotoxic
1 | Cc1ncsc1C(=O)Nc1nc2c(s1)CC(C)CC2 (stereo not given) | inconclusive: 14.1 µM [cytotoxic, single point] | 
2 | Cc1cc(C)n(-c2ccc(C(=O)Nc3ccc(C)c(S(=O)(=O)N4CCOCC4)c3)cc2)n1 | inconclusive: 9.2 µM [cytotoxic, partial curve] | 
3 | CC(C)c1ccc(CNc2ccc3c(c2)ncn3C)cc1 | inconclusive: 29.1 µM [cytotoxic, partial curve, poor fit] | 
4 | COc1ccc(C)cc1Nc1n[n+](-c2ccccc2)c(-c2cc(OC)c(OC)cc2Br)s1 | inconclusive: 32.6 µM [cytotoxic, single point] | 
5 | O=S(=O)(NC1c2cccc3cccc(c23)C1N1CCNCC1)c1ccccc1 (stereo not given) |  | inactive: -2.72%
6 | O=C(CCSCCC(=O)NN=Cc1ccc(F)cc1)NN=Cc1ccc(F)cc1 | inconclusive: 29.1 µM [rising, single point] | 
7 | CN(C)CCN1CCN(C2CN(CCc3ccccc3)S(=O)(=O)C2)CC1 (stereo not given) |  | inactive: 0.0302%
8 | O=C(CCCN1C(=O)/C(=C/c2cccs2)SC1=S)NNC(=O)c1ccccc1O | inconclusive: 20.6 µM [cytotoxic, partial curve, poor fit] | 
9 | Cn1c(=O)c2c(nc(CN3CCN(c4ccccc4)CC3)n2CCc2ccccc2)n(C)c1=O | inconclusive: 29.1 µM [cytotoxic, single point] | 
10 | O=C(CNCc1ccccn1)Nc1cc(S(=O)(=O)N2CCCCC2)ccc1Cl | inconclusive: 23.1 µM [cytotoxic, partial curve, poor fit] | 
11 | O=C1CN(C(=O)CSc2nnnn2-c2ccc(Cl)cc2)c2ccccc2N1 |  | inactive: 10.8%
12 | O=C(Nc1ccc(F)cc1)c1cccc(N2C(=O)C3C4C=CC(C5CC45)C3C2=O)c1 (stereo not given) |  | inconclusive: -42.8%
13 | C=CCOc1c(Br)cc(/C=N/O)cc1OCC | inconclusive: 20.6 µM [cytotoxic, single point] | 
14 | COc1ccc(NC(=O)CSc2n[nH]c(-c3ccccc3)n2)cc1S(N)(=O)=O |  | inactive: 27.6%
15 | Cc1ccc(Sc2c(CO)c(-c3ccccc3)nn2C)cc1 | inconclusive: 0.58 µM [cytotoxic, partial curve, poor fit] | 
16 | COc1cc(NC(=O)c2ccc3oc(=O)c(S(=O)(=O)c4ccccc4)cc3c2)cc(OC)c1 | inconclusive: 29.1 µM [cytotoxic, single point] | 
17 | Cn1c(SCC(=O)N2CCCCC2)nc2c([nH]c3ccccc32)c1=O |  | inactive: 6.26%
18 | COc1ccc(CSCC(=O)Nc2ccccc2SC)cc1 | inconclusive: 29.1 µM [cytotoxic, single point] | 

Row | SMILES | Potency | activity change, negative = cytotoxic
19 | COc1ccc(CN2C[C@@H](CO)O[C@@H](n3cnc4c(NCCO)ncnc43)C2)cc1 |  | inactive: 0%
20 | Cc1nn(Cc2c(F)c(F)c(F)c(F)c2F)c(C)c1NC(=O)c1c([N+](=O)[O-])cnn1C | inconclusive: 29.1 µM [cytotoxic, single point] | 
21 | Cc1ccc(S(=O)(=O)N2CCN(C)CC2)c(C)c1N(C)S(=O)(=O)c1ccc(Cl)cc1 | inconclusive: 29.1 µM [cytotoxic, single point] | 
22 | O/N=C(\C[n+]1ccccc1)c1ccc(Br)cc1 | inconclusive: 20.6 µM [cytotoxic, partial curve] | 
23 | Cc1ccc(N2C(=O)CSC23C(=O)N(Cc2ccccc2F)c2ccccc23)cc1F (stereo not given) | inconclusive: 29.1 µM [cytotoxic, single point] | 
24 | CCN(CC)S(=O)(=O)c1cccc(C(=O)N[C@H](C(=O)Nc2nc3ccccc3s2)C(C)C)c1 |  | inactive: -11.1%
25 | COc1cc(OC)cc(C(=O)NCC(=O)Nc2ccc(-c3ccccc3)cc2)c1 | inconclusive: 8.2 µM [cytotoxic, partial curve] | 
26 | O=C(c1cc(-c2ccc(Cl)cc2)on1)N1CCOCC1 |  | inactive: 2.96%
27 | CC(CC(=O)Nc1ccc2c(c1)c(=O)n(C)n2Cc1ccc(F)cc1)c1ccccc1 (stereo not given) | inconclusive: 29.1 µM [cytotoxic, single point] | 
28 | Fc1ccc2c(c1)C1C=CCC1C(c1cc3c(cc1Br)OCO3)N2 (stereo not given) | inconclusive: 20.6 µM [cytotoxic, single point] | 
29 | COc1cccc(C(c2sc3nc(-c4ccco4)nn3c2O)N2CCCC2)c1 (stereo not given) |  | inactive: 16.3%
30 | CCC1Nc2ncnc(N3CCN(c4ccccn4)CC3)c2N(Cc2ccc(Cl)cc2)C1=O (stereo not given) | inconclusive: 29.1 µM [cytotoxic, single point] | 
31 | Oc1ccc(Nc2nc(-c3ccc(O)cc3)cs2)cc1 | inconclusive: 35.5 µM [cytotoxic, single point] | 
32 | CC1C(=O)N(Cc2cn(CCC3OCCCO3)nn2)CCS(=O)(=O)N1Cc1ccc(-c2cccc(N(C)C)c2)cc1 (stereo not given) |  | inconclusive: -11.3%
33 | CCOc1ccc(/C=N/NC(=S)Nc2c(C)cccc2C)cc1 | inconclusive: 20.6 µM [cytotoxic, single point] | 
34 | C=CCc1cc(C(=O)N2CCCCC2)ccc1O | inconclusive: 10.3 µM [cytotoxic, partial curve, poor fit] | 
35 | CCCc1ccc(-c2c(C)sc(N)c2C#N)cc1 | inconclusive: 20 µM [cytotoxic, partial curve, poor fit] | 

Three compounds picked at random from the list so far, as already listed:
Row | SMILES | Potency | activity change, negative = cytotoxic
22 | O/N=C(\C[n+]1ccccc1)c1ccc(Br)cc1 | inconclusive: 20.6 µM [cytotoxic, partial curve] | 
19 | COc1ccc(CN2C[C@@H](CO)O[C@@H](n3cnc4c(NCCO)ncnc43)C2)cc1 |  | inactive: 0%
30 | CCC1Nc2ncnc(N3CCN(c4ccccn4)CC3)c2N(Cc2ccc(Cl)cc2)C1=O (stereo not given) | inconclusive: 29.1 µM [cytotoxic, single point] | 
